Experimental data from PubChem BioAssay AID493014 (National Center for Advancing Translational Sciences (NCATS), 2011).
The list shows a part of the results. These are further read-outs of the screen, such as a control signal, another cell line or another target. No call is given for them. The list favours compounds with an active or inconclusive main result. Potencies come from curve fits of mixed quality, noted in brackets.

Experiment: qHTS Assay to Find Inhibitors of Chronic Active B-Cell Receptor Signaling
Settings: ABC-DLBCL IkBa-CBG/CBR reporter, luminescence ratio (green luciferase fused to IkBa over red control in TMD8 lymphoma cells), 4 h
How it was run: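 Concentration-response series (up to 46 uM) were applied to TMD8 dual-reporter cells for 4 h at 37C with doxycycline. Green/red ratio, after filter-overlap correction, defined %Activity; red signal alone was normalised to basal cells and zero luminescence.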

[1] = measured here: CBR red luminescence, cell number
[2] = measured here: IkBa-CBG green luminescence

Row | Structure (SMILES) | AC50 [1] | AC50 [2]
1 | CCc1ccc(-c2ccc(C(=O)C(F)(F)F)[nH]2)cc1 | 1.41 µM [rising, full curve] | –
2 | O=C(NCc1cc([N+](=O)[O-])ccc1O)c1cccnc1Sc1ccccc1Cl | 0.708 µM [falling, full curve] | –
3 | CC(=O)Nc1cccc(Nc2nc(-c3ccccc3F)nc3ccccc23)c1 | 25.1 µM [falling, single point] | 12.6 µM [rising, partial curve, poor fit]
4 | CCOC(=O)C1CCCN(C(=O)c2ccc3c(=O)n(CCOC)c(=S)[nH]c3c2)C1 (configuration not stated) | 1.03 µM [falling, full curve] | –
5 | O=C(CC1CCCC1)Nc1cccc(Br)c1 | 2.51 µM [rising, full curve, poor fit] | –
6 | COC(=O)c1cccc(NC(=O)Cn2nnc3ccccc32)c1 | 15.8 µM [falling, single point] | –
7 | CCCCCOC(=O)Cc1c(O)c2ccccc2n(C)c1=O | 12.6 µM [falling, single point] | –
8 | Cc1ccc(N(CC(=O)NC2CCCCC2)C(=O)CNC(=O)c2cccs2)cc1 | 12.6 µM [falling, partial curve, poor fit] | –
9 | O=C(O)CNC(=O)c1ccc(NC(=O)/C(=C/c2ccccc2)NC(=O)c2ccccc2Br)cc1 | 1 µM [falling, partial curve, poor fit] | –
10 | COc1ccc(C(=O)OC(C)C(=O)NC2CCCc3ccccc32)cc1OC (configuration not stated) | 29.1 µM [rising, single point] | –
11 | S=c1[nH]nc(Nc2ccc(Cl)cc2)s1 | 1.78 µM [rising, single point] | –
12 | CCOC(=O)c1[nH]c(C)c(CCC(=O)OC)c1C | 23.1 µM [rising, partial curve, poor fit] | 16.4 µM [falling, single point]
13 | Cc1ccc(S(=O)(=O)N2CCCC2)cc1C(=O)NCC(C)(C)N1CCOCC1 | 25.9 µM [falling, single point] | –
14 | O=C(O)C1CCCN1S(=O)(=O)c1ccc(Br)s1 (configuration not stated) (tested in a mixture with another compound) | 0.092 µM [falling, full curve, poor fit] | –
15 | COc1ccc2nc(Cl)c(C3CC(c4ccco4)=NN3C(=O)CCC(=O)O)cc2c1 (configuration not stated) | 6.51 µM [rising, partial curve, poor fit] | –
16 | CC(C)(C)C1=Nn2c(nnc2-c2n[nH]c3c2CCC3)SC1 | 0.411 µM [falling, full curve, poor fit] | –
17 | COc1ccc(NC(=O)c2ccccc2SC)cc1 | 22.4 µM [falling, single point] | –
18 | O=C1CC(SCc2nc3ccccc3[nH]2)C(=O)N1c1cccc(F)c1 (configuration not stated) | 13 µM [falling, partial curve] | –
19 | Cc1ccc(NC(=O)Cc2ccc(Cl)c(Cl)c2)cc1S(=O)(=O)N(C)C | 29.1 µM [falling, single point] | 29.1 µM [rising, single point]
20 | COc1ccc2c(C(=O)CN3CCC(C)CC3)c[nH]c2c1 | 29.1 µM [rising, single point] | –
21 | COc1cccc(-n2nc(-c3ccnn3-c3ccc(F)cc3)c(=O)n(C)c2=O)c1 | 0.651 µM [falling, partial curve, poor fit] | –

Row | Structure (SMILES) | AC50 [1] | AC50 [2]
22 | O=C(/C=C/Nc1ccc(Oc2ccccc2)cc1)c1ccco1 | 3.16 µM [rising, partial curve, poor fit] | –
23 | O=C(O)c1nc(-c2ccccc2)n(-c2ccc(Cl)cc2)n1 | 5.62 µM [falling, single point] | –
24 | CCN(Cc1cc(=O)n2ccsc2n1)Cc1nc2ccccc2c(=O)[nH]1 | 35.5 µM [rising, single point] | –
25 | CC(C)S(=O)(=O)C1=NSC2=NC(=O)/C(=C\c3ccc(-c4cccc(C(=O)O)c4)o3)C(=N)N21 | 7.94 µM [falling, partial curve, poor fit] | –
26 | Cc1ccccc1N1CC(c2nc3ccccc3[nH]2)CC1=O (configuration not stated) | 2.31 µM [rising, partial curve, poor fit] | –
27 | COC(=O)c1ccc(-c2ccc(/C=N/NC(=O)CC3(C)OCCCO3)o2)cc1 | 35.5 µM [falling, single point] | –
28 | Cc1ccc(NC(=O)C2C3C=CC4(CN(Cc5cccnc5)C(=O)C24)O3)cc1F (configuration not stated) | 16.4 µM [rising, partial curve, poor fit] | –
29 | COc1cccc(C(=O)NCC(=O)N/N=C/c2c(C)[nH]c3ccccc23)c1 | 5.01 µM [falling, partial curve, poor fit] | –
30 | Cc1ccc(C(=O)CSc2nnc(-c3ccc4[nH]c(C)c(C)c4c3)o2)cc1C | 1.64 µM [falling, partial curve, poor fit] | –
31 | Cc1noc(C)c1COC(=O)c1cccc(S(=O)(=O)N2CCCCCC2)c1 | 0.631 µM [falling, partial curve, poor fit] | –
32 | CN(c1ccccc1)S(=O)(=O)c1cc(Cl)ccc1Cl | 35.5 µM [rising, single point] | –
33 | O=C(Cc1ccccc1F)Nc1cc(S(=O)(=O)N2CCOCC2)ccc1N1CCCC1 | 1.84 µM [rising, full curve, poor fit] | –
34 | O=C(CCCc1nc(-c2ccccc2Cl)no1)NCc1cccnc1 | 12.6 µM [rising, partial curve, poor fit] | –
35 | CC(=O)NC(c1ccco1)c1cc(Br)c2cccnc2c1O (configuration not stated) | 20.6 µM [falling, single point] | –
36 | CCC(=O)Nc1cccc2c1C(=O)N(C)C2=O | 9.2 µM [falling, partial curve, poor fit] | –
37 | O=C(NC(=S)N1CCN(c2nc(-c3ccccc3)cs2)CC1)c1cccnc1 | 29.1 µM [rising, single point] | 16.4 µM [falling, single point]
38 | CCCCC(=O)c1c(O)c2ccccc2oc1=O | 3.55 µM [falling, partial curve] | –
39 | CCN(CC)S(=O)(=O)c1cccc(NC(=O)CCNC(=O)NC23CC4CC(CC(C4)C2)C3)c1 | 0.092 µM [rising, full curve, poor fit] | –
40 | O=C(Nc1ccc2c(c1)oc1ccccc12)c1ccncc1 | 14.1 µM [falling, single point] | –
41 | CCOC(=O)C1CCN(c2ncnc3c2c(-c2ccccc2)cn3-c2ccc(C)cc2)CC1 | 35.5 µM [rising, single point] | –
42 | CCOC(=O)c1ccc(NC(=O)CSc2nccn2C)cc1 | 16.4 µM [falling, single point] | –

Single values from above:
O=C(/C=C/Nc1ccc(Oc2ccccc2)cc1)c1ccco1 | AC50 [1]: 3.16 µM [rising, partial curve, poor fit]
CCc1ccc(-c2ccc(C(=O)C(F)(F)F)[nH]2)cc1 | AC50 [1]: 1.41 µM [rising, full curve]
CCOC(=O)c1[nH]c(C)c(CCC(=O)OC)c1C | AC50 [2]: 16.4 µM [falling, single point]

Two of the compounds above, with tabs:
Row	Structure (SMILES)	AC50 [1]	AC50 [2]
10	COc1ccc(C(=O)OC(C)C(=O)NC2CCCc3ccccc32)cc1OC (configuration not stated)	29.1 µM [rising, single point]	–
22	O=C(/C=C/Nc1ccc(Oc2ccccc2)cc1)c1ccco1	3.16 µM [rising, partial curve, poor fit]	–

(next part)

Row | Structure (SMILES) | AC50 [1] | AC50 [2]
43 | O=C(Nc1ccc(Cl)c(Cl)c1)c1ccc2c(c1)OCO2 | 28.2 µM [falling, single point] | –
44 | COCCNC(=O)c1cc2c(=O)[nH]c3ccccc3c2s1 | 28.2 µM [falling, single point] | –
45 | Cc1ccc(NC(=O)COC(=O)Cc2csc(-c3ccc(Cl)cc3)n2)cc1C | 4.11 µM [rising, full curve] | –
46 | O=C(/C=C/c1ccccc1Cl)OCC(=O)N1CCCC1 | 29.1 µM [falling, single point] | –
47 | CCOC(=O)CSc1nnc(NC(=O)c2cccc([N+](=O)[O-])c2)s1 | 0.13 µM [falling, full curve] | 32.6 µM [rising, partial curve, poor fit]
48 | CC(C)CC(=O)NC(c1ccccc1Cl)c1c(O)ccc2ccccc12 (configuration not stated) | 11.6 µM [falling, partial curve] | –
49 | Cc1ccc(N2CC(C(=O)OCc3ccccc3F)CC2=O)cc1 (configuration not stated) | 1.3 µM [rising, full curve, poor fit] | –
50 | C[C@H](CO)N1C[C@H](C)[C@@H](CN(C)S(=O)(=O)c2cccs2)Oc2ccc(NS(=O)(=O)c3ccccc3)cc2C1=O | 3.66 µM [rising, full curve] | –
51 | Cc1ccc(CNC(=O)c2ccc(COc3ccccc3)cc2)cc1 | 11.6 µM [rising, partial curve, poor fit] | –
52 | CC(=O)c1ccc(NC(=O)Nc2ccc(Cl)cc2)cc1 | 25.9 µM [falling, single point] | –
53 | C(=C\c1ccccc1)/C=N/Nc1nc2ccccc2[nH]1 | 20.6 µM [falling, partial curve] | 18.4 µM [falling, single point]
54 | Oc1ccc(/C=N\Nc2nncc(-c3ccccc3)n2)cc1 | 7.94 µM [falling, partial curve] | –
55 | Cc1ccc(S(=O)(=O)N2[C@@H](c3ccc(C(C)(C)C)cc3)C(C(=O)O)=CC[C@H]2c2ccc(C(C)C)cc2)cc1 | 2.06 µM [rising, partial curve, poor fit] | –
56 | O=C1OCCC1Sc1nnc(-c2ccc(O)cc2)o1 (configuration not stated) | 11.2 µM [falling, partial curve, poor fit] | –
57 | CCOC(=O)C1CCCN(C(=O)CSc2nnnn2C)C1 (configuration not stated) | 25.9 µM [rising, single point] | –
58 | C[C@H](NC(=O)C1CCN(S(=O)(=O)c2ccccc2)CC1)C(=O)NCc1ccc(Cl)c(Cl)c1 | 12.6 µM [falling, single point] | –
59 | CCOc1cc(-c2nc3ccccn3c2NCC2CCCO2)ccc1O (configuration not stated) | 0.651 µM [falling, partial curve, poor fit] | –
60 | CCc1cccc(NC(=O)Cn2cc3c(n2)CCCC3)c1 | 29.1 µM [rising, partial curve, poor fit] | –
61 | CCc1nc2sc3ccccc3c(=O)c2c(=O)n1Cc1ccco1 | 9.2 µM [falling, partial curve, poor fit] | –
